Read-outs that look alike come from different tables or passages of the source. These are yes or no findings as the source states them, for the method shown. Binding seen in cells or lysates may run through a third protein. Some binding calls cover weakened binding; strength is not graded here. For some of these results: Sequences can lack the tags named with a protein.

By UniProt entry, the sequences of proteins in these tests, tags left out.
UniProt P0CAP2: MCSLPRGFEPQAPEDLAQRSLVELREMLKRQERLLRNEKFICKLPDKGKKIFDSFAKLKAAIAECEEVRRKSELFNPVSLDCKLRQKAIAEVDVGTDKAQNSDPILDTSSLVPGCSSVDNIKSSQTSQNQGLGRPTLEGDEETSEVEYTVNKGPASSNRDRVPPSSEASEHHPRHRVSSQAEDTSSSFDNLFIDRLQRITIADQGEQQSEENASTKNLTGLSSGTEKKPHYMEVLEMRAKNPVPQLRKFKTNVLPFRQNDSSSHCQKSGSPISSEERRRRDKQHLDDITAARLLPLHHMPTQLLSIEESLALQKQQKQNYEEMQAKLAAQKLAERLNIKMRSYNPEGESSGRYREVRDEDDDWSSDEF
UniProt Q15648: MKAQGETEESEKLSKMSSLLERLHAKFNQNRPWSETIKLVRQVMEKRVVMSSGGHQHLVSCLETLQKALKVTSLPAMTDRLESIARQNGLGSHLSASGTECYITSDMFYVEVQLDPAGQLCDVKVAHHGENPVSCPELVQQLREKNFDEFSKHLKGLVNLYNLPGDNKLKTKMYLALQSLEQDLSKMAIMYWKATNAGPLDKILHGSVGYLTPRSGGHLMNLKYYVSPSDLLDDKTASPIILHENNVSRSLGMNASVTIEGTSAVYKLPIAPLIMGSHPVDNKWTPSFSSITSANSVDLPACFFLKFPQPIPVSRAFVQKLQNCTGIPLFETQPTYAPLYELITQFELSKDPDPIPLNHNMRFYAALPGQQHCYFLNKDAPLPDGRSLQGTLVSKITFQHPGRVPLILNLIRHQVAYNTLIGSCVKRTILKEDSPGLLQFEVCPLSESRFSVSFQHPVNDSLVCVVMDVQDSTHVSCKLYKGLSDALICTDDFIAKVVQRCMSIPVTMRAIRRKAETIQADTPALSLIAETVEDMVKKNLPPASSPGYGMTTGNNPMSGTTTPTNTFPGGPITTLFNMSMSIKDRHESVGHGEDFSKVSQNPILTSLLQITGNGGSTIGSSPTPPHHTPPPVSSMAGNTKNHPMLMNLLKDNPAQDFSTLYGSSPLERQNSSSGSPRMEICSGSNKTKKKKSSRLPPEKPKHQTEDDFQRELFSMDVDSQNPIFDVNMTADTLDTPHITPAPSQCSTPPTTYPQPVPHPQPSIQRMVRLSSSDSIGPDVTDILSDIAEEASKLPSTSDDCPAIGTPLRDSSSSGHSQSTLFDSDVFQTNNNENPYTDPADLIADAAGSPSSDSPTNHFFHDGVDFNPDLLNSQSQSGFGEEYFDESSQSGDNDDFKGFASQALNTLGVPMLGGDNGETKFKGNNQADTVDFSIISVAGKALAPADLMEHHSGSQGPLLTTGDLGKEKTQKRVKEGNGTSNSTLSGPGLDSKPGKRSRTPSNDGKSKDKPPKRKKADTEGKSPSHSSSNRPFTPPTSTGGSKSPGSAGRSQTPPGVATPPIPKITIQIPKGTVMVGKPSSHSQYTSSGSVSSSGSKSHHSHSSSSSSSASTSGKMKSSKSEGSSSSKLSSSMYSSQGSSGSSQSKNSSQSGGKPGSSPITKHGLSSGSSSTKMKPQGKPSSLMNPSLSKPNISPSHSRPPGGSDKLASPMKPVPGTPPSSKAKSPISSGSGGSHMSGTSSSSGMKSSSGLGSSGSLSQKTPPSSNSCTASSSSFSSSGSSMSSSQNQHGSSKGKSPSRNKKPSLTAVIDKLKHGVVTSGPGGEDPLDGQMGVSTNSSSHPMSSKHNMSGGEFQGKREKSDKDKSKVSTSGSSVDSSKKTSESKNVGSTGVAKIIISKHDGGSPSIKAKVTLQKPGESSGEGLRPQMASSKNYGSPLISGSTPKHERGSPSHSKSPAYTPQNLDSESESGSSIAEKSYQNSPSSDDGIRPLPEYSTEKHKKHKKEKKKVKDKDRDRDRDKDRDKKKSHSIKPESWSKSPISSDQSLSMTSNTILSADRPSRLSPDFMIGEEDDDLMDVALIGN
UniProt O14980: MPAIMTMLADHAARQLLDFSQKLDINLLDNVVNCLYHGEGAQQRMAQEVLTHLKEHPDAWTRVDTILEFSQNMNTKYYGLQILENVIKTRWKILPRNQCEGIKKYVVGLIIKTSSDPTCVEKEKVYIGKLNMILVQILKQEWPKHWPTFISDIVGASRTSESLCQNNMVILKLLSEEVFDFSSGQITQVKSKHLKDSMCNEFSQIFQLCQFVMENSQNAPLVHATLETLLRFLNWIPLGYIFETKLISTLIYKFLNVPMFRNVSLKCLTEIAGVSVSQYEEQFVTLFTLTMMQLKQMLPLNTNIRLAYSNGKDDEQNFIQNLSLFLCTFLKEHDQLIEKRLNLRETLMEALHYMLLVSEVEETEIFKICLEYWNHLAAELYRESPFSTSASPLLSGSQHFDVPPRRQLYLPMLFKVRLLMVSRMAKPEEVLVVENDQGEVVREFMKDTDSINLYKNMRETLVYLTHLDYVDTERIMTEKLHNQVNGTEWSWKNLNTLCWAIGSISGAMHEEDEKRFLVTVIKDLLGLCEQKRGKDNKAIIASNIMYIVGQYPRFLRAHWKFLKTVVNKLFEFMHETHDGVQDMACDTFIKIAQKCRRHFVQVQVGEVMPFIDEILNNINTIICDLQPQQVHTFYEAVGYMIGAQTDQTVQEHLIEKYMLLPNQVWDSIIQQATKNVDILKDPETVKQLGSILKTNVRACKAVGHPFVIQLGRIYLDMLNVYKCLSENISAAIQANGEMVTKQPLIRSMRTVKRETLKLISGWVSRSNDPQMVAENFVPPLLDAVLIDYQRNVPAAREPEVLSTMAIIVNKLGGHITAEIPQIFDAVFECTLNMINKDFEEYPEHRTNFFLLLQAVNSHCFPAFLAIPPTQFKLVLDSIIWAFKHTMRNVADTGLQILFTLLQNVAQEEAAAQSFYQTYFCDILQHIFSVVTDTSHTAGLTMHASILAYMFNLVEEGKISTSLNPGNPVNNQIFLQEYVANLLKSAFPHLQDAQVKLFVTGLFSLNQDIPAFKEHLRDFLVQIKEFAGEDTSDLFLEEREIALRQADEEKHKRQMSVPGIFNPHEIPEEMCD

Assay [1] addresses human GDOWN1 (POLR2M), full length, wild type, BiFC fusion (human) (UniProt P0CAP2). The assay is described as follows: split reporter.
Assay [2] deals with GDOWN1-Venus-Flag, wild type (human) (UniProt P0CAP2). The assay is described as follows: co-IP.
Assay [3] addresses human GDOWN1 (POLR2M), full length, wild type, BiFC fusion (human) (UniProt P0CAP2). The assay is described as follows: split reporter. The source holds these as a separate data set.

“MED1, BiFC fusion (from UniProt Q15648 1-1581)”: the binding result in assay [1] is “no binding”.

Take “CRM1, endogenous (from UniProt O14980 1-1071)”: the binding result in assay [2] was “binds”.

As for “VN-CRM1, BiFC fusion (from UniProt O14980 1-1071)”, the binding result in assay [1] is “binds”.

B1: NUP50, BiFC fusion (protein, UniProt Q9UKX7 1-468)
chain: MAKRNAEKELTDRNWDQEDEAEEVGTFSMASEEVLKNRAIKKAKRRNVGFESDTGGAFKGFKGLVVPSGGGRFSGFGSGAGGKPLEGLSNGNNITSAPPFASAKAAADPKVAFGSLAANGPTTLVDKVSNPKTNGDSQQPSSSGLASSKACVGNAYHKQLAALNCSVRDWIVKHVNTNPLCDLTPIFKDYEKYLANIEQQHGNSGRNSESESNKVAAETQSPSLFGSTKLQQESTFLFHGNKTEDTPDKKMEVASEKKTDPSSLGATSASFNFGKKVDSSVLGSLSSVPLTGFSFSPGNSSLFGKDTTQSKPVSSPFPTKPLEGQAEGDSGECKGGDEEENDEPPKVVVTEVKEEDAFYSKKCKLFYKKDNEFKEKGIGTLHLKPTANQKTQLLVRADTNLGNILLNVLIPPNMPCTRTGKNNVLIVCVPNPPIDEKNATMPVTMLIRVKTSEDADELHKILLEKKDA
For the molecule B1, the binding entry in assay [3] was “binds weakly”.

B2: RAE1, BiFC fusion (protein, UniProt P78406 1-368)
chain: MSLFGTTSGFGTSGTSMFGSATTDNHNPMKDIEVTSSPDDSIGCLSFSPPTLPGNFLIAGSWANDVRCWEVQDSGQTIPKAQQMHTGPVLDVCWSDDGSKVFTASCDKTAKMWDLSSNQAIQIAQHDAPVKTIHWIKAPNYSCVMTGSWDKTLKFWDTRSSNPMMVLQLPERCYCADVIYPMAVVATAERGLIVYQLENQPSEFRRIESPLKHQHRCVAIFKDKQNKPTGFALGSIEGRVAIHYINPPNPAKDNFTFKCHRSNGTNTSAPQDIYAVNGIAFHPVHGTLATVGSDGRFSFWDKDARTKLKTSEQLDQPISACCFNHNGNIFAYASSYDWSKGHEFYNPQKKNYIFLRNAAEELKPRNKK
On to B2, for which the binding result in assay [3] was “binds”.

B3: RPRD1B, BiFC fusion (protein, UniProt Q9NQG5 1-326)
chain: MSSFSESALEKKLSELSNSQQSVQTLSLWLIHHRKHAGPIVSVWHRELRKAKSNRKLTFLYLANDVIQNSKRKGPEFTREFESVLVDAFSHVAREADEGCKKPLERLLNIWQERSVYGGEFIQQLKLSMEDSKSPPPKATEEKKSLKRTFQQIQEEEDDDYPGSYSPQDPSAGPLLTEELIKALQDLENAASGDATVRQKIASLPQEVQDVSLLEKITDKEAAERLSKTVDEACLLLAEYNGRLAAELEDRRQLARMLVEYTQNQKDVLSEKEKKLEEYKQKLARVTQVRKELKSHIQSLPDLSLLPNVTGGLAPLPSAGDLFSTD
For the molecule B3, the binding entry in assay [3] is reported as “binds”.

B4: MED26, BiFC fusion (protein, UniProt O95402 1-600)
chain: MTAAPASPQQIRDRLLQAIDPQSNIRNMVAVLEVISSLEKYPITKEALEETRLGKLINDVRKKTKNEELAKRAKKLLRSWQKLIEPAHQHEAALRGLAGATGSANGGAHNCRPEVGAAGPPRSIHDLKSRNDLQRLPGQRLDRLGSRKRRGDQRDLGHPGPPPKVSKASHDPLVPNSSPLPTNGISGSPESFASSLDGSGHAGPEGSRLERDENDKHSGKIPVNAVRPHTSSPGLGKPPGPCLQPKASVLQQLDRVDETPGPPHPKGPPRCSFSPRNSRHEGSFARQQSLYAPKGSVPSPSPRPQALDATQVPSPLPLAQPSTPPVRRLELLPSAESPVCWLEQPESHQRLAGPGCKAGLSPAEPLLSRAGFSPDSSKADSDAASSGGSDSKKKKRYRPRDYTVNLDGQVAEAGVKPVRLKERKLTFDPMTRQIKPLTQKEPVRADSPVHMEQQSRTELDKQEAKASLQSPFEQTNWKELSRNEIIQSYLSRQSSLLSSSGAQTPGAHHFMSEYLKQEESTRQGARQLHVLVPQSPPTDLPGLTREVTQDDLDRIQASQWPGVNGCQDTQGNWYDWTQCISLDPHGDDGRLNILPYVCLD
Take B4: the binding result in assay [3] is on record as “no binding”.

(Values after doi:10.1101/2022.03.29.486178.)
